# The list shows a part of the results.
# Protein sequences, listed by entry. Tags and fused reporters are not part of them. Lines headed by an entry give the natural chain unless they say otherwise; changes in a name come on top.
# UniProt Q96E17: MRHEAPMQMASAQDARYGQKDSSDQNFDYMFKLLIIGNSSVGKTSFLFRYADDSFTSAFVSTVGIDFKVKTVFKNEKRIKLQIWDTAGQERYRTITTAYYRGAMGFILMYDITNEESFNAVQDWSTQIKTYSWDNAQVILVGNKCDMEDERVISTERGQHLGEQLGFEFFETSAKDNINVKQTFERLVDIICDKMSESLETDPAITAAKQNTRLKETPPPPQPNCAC
# UniProt Q9P2N5: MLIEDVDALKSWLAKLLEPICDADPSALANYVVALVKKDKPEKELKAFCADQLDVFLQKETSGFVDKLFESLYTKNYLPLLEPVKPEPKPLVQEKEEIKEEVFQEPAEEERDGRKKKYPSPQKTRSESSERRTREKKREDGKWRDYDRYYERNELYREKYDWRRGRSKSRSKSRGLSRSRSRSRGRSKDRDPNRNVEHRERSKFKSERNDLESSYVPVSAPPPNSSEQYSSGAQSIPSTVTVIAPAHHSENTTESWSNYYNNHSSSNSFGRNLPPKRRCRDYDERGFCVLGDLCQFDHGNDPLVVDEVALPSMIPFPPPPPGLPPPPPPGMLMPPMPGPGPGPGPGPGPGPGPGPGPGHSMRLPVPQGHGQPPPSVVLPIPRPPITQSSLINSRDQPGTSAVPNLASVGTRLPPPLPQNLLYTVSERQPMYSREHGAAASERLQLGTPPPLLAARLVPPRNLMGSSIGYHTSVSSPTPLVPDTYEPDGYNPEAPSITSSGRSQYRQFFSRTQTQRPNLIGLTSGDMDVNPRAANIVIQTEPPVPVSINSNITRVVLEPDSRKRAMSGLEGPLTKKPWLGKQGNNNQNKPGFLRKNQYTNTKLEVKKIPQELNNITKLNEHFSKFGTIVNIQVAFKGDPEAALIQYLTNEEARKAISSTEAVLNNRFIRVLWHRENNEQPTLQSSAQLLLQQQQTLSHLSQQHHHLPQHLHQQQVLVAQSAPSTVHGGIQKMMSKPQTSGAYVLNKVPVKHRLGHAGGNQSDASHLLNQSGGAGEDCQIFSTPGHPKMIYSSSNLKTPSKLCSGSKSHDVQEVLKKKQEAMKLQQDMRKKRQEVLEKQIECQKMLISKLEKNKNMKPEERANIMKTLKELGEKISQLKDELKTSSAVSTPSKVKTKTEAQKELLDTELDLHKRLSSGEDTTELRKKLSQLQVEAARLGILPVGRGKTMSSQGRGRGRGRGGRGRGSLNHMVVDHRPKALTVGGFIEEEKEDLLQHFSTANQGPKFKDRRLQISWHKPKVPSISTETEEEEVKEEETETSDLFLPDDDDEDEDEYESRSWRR
# UniProt P61224: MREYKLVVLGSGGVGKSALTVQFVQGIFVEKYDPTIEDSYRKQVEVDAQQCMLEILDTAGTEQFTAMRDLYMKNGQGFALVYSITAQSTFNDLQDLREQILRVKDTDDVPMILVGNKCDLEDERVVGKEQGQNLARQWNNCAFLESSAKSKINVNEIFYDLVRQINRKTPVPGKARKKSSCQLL
# UniProt P61106, whole entry, looked up: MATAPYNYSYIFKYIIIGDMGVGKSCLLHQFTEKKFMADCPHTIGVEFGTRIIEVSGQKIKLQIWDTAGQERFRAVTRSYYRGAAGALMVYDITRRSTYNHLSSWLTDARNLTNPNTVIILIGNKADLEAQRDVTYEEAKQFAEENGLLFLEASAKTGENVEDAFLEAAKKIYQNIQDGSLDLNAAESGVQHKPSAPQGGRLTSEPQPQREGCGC
# UniProt P20336: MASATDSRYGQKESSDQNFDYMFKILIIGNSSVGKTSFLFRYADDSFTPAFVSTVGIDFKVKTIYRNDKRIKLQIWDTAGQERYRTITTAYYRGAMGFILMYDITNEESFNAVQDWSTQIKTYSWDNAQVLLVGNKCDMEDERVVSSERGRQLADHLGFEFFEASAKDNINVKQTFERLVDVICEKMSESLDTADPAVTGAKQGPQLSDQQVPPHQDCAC
# UniProt Q16576, whole entry, looked up: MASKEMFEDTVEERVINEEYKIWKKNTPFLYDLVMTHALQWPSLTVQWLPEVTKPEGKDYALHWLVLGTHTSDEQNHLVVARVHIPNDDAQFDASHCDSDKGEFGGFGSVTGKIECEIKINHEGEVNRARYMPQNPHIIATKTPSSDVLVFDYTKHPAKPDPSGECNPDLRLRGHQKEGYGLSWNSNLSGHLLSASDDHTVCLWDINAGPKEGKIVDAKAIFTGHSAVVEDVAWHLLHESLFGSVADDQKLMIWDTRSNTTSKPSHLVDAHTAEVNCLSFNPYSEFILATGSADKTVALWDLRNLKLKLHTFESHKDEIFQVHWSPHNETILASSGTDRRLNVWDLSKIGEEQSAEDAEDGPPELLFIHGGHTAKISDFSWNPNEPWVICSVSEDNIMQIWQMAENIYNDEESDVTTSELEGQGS
# UniProt P06400: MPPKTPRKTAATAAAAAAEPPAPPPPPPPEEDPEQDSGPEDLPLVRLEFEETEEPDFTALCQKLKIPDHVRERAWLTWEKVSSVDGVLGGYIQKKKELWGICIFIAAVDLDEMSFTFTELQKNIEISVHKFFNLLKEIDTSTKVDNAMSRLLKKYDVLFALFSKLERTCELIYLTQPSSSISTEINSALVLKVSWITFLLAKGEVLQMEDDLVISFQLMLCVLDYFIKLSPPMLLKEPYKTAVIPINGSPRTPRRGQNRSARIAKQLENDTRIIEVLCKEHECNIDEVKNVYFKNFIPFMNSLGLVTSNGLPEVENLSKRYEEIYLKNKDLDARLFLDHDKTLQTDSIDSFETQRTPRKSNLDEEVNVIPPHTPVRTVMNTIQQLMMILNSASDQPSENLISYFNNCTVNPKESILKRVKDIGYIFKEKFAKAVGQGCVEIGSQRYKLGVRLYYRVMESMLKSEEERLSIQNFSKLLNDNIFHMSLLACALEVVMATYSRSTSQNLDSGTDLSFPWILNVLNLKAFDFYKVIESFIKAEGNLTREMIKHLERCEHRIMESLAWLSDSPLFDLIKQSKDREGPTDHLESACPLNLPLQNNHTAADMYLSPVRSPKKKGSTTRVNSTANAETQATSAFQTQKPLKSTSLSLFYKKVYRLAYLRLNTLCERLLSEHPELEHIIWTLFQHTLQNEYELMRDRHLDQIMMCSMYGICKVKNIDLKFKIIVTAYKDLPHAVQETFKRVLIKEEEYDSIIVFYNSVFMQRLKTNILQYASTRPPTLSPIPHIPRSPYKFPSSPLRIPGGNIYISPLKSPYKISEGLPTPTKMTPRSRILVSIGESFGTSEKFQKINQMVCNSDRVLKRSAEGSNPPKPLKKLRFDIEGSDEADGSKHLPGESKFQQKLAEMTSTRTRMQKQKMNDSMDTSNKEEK
# UniProt P49792, whole entry, looked up: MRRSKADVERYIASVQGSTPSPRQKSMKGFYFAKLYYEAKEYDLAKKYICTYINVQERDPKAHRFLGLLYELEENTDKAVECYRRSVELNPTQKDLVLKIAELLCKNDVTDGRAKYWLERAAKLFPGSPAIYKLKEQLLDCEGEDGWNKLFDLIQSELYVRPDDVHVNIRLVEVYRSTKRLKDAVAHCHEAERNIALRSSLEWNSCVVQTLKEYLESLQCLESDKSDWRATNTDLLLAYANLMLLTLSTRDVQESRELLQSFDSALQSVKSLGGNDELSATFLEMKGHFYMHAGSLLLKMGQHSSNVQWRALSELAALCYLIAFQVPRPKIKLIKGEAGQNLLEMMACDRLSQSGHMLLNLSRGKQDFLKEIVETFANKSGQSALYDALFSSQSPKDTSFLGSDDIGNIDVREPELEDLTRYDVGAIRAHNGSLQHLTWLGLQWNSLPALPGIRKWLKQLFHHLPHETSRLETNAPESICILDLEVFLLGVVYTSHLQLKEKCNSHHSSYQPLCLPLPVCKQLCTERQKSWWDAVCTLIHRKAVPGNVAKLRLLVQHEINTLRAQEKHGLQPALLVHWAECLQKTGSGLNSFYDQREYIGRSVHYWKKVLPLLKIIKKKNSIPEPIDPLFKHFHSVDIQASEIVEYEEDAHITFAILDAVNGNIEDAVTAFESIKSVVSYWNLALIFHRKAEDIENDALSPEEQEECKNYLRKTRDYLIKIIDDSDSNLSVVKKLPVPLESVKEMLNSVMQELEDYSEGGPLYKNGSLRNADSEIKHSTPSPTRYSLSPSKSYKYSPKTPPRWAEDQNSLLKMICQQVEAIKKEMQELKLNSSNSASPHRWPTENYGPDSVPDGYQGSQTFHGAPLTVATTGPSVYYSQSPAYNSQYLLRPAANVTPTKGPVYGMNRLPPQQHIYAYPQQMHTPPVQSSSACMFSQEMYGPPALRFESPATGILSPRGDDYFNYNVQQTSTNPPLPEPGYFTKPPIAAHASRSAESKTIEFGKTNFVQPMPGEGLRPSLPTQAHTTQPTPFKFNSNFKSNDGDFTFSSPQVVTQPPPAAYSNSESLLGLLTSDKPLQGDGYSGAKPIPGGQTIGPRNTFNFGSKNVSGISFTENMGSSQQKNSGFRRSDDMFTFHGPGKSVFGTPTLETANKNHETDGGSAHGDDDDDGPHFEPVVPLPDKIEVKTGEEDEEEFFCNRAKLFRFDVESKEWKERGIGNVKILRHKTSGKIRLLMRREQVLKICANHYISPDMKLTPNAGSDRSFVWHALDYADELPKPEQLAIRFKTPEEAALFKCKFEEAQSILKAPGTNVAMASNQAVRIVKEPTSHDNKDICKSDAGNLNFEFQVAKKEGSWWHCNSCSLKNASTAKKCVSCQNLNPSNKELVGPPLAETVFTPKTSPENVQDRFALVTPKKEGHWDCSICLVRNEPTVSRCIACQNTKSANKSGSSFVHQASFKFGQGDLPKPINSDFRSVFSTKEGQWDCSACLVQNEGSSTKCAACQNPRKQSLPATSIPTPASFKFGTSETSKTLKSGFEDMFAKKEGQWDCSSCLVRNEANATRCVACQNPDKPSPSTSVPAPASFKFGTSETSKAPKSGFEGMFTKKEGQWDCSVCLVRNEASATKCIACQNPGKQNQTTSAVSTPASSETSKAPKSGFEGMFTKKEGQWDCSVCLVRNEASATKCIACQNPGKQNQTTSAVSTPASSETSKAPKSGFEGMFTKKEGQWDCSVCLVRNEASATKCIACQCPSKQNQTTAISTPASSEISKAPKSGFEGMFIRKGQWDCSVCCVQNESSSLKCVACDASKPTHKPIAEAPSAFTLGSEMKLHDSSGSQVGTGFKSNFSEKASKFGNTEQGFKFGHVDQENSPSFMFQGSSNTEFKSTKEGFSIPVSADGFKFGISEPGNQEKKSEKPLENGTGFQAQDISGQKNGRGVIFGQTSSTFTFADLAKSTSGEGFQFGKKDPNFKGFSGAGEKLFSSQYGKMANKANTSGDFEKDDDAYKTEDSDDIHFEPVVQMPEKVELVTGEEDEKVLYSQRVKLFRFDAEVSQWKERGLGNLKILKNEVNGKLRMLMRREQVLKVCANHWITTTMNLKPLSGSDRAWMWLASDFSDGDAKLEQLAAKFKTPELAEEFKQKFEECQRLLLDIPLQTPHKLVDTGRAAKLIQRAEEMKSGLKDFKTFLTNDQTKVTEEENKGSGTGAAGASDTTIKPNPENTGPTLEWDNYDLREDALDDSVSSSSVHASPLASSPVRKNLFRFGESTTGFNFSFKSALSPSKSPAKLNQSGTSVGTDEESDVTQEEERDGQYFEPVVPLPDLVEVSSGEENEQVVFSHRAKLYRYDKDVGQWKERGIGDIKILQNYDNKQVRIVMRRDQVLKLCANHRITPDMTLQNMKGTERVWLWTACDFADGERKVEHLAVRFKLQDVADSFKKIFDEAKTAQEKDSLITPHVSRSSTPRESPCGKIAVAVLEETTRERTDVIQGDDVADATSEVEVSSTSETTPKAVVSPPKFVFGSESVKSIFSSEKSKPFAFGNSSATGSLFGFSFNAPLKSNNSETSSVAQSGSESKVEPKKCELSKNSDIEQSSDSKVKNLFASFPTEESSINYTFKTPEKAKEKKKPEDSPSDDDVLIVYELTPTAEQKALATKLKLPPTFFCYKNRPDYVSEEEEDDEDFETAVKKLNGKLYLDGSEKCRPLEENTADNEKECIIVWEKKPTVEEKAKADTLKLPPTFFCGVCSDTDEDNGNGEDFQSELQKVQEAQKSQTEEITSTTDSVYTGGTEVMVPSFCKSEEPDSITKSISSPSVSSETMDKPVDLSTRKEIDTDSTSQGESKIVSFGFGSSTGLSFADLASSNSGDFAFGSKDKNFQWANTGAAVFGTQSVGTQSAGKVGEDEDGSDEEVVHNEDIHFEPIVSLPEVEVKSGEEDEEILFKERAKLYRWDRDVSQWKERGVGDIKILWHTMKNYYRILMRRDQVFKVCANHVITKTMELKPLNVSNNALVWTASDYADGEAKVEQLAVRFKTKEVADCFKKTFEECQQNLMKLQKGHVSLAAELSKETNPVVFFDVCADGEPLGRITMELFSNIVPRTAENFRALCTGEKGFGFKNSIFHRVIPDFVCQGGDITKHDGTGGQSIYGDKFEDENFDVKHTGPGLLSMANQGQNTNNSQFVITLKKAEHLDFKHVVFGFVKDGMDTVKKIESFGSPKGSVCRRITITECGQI
# Columns and labels:
# Experiment in all cases: log2 fold change, soluble protein after heating vs DMSO (PISA); higher = thermal stabilisation; K562 cells, 10 uM, 30 min; active = over 0.2 and 3.5 SD of the protein, either way, in both replicates (recomputed)
# [1] = compound: Cc1ccc(NC(=O)c2ccc(CN3CC[C@H](N(C)C)C3)c(C(F)(F)F)c2)cc1Nc1nccc(-c2cncnc2)n1 [bafetinib]
# Method in brief: (§1)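 K562 cells at 2×10^6 cells/mL were exposed to 10 μM compound for 30 min, then aliquots were heated for 3 min across 48°C-58°C, pooled, and extracted in PBS containing 0.5% NP-40 at 4°C. The supernatant after 21,000xg for 90 min was taken as soluble protein and measured by TMTpro 16plex LC-MS/MS with channel sums equalised. Thermal stability is reported relative to control samples, with values from duplicates. Fold changes are given on a log2 scale.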
# [2] = compound: Cc1cccc(CC(=O)N2CCc3c2ccc(-c2cn(C)c4ncnc(N)c24)c3F)n1
# Method in brief: as §1
# [3] = compound: Cc1cn(-c2cc(NC(=O)c3ccc(C)c(Nc4nccc(-c5cccnc5)n4)c3)cc(C(F)(F)F)c2)cn1 [nilotinib]
# Method in brief: as §1
# [4] = compound: Cc1nc(Nc2n[nH]c3c2CN(C(=O)N[C@H](CN(C)C)c2ccccc2)C3(C)C)c2sccc2n1
# Method in brief: as §1
# [5] = compound: Cc1nc(Nc2ncc(C(=O)Nc3c(C)cccc3Cl)s2)cc(N2CCN(CCO)CC2)n1 [dasatinib]
# Method in brief: as §1
# [6] = compound: Cc1ncc(-c2ccnc(Nc3ccc(S(C)(=O)=O)cc3)n2)n1C(C)C
# Method in brief: as §1
# [7] = compound: Cn1cc(-c2ccc3c(c2)CCN3C(=O)Cc2cccc(C(F)(F)F)c2)c2c(N)ncnc21
# Method in brief: as §1
# [8] = compound: Cn1cc(-c2ccc3nnc(C(F)(F)c4ccc5ncccc5c4)n3n2)cn1
# Method in brief: as §1
# [9] = compound: Cn1cncc1[C@@](N)(c1ccc(Cl)cc1)c1ccc2c(c1)c(-c1cccc(Cl)c1)cc(=O)n2C [tipifarnib]
# Method in brief: as §1
# [10] = compound: FC(F)(F)c1ccc(/C=C/c2nc(COc3ccc(CCCCn4ccnn4)cc3)co2)cc1 [mubritinib]
# Method in brief: as §1
Target,log2 fold change [1],log2 fold change [2],log2 fold change [3],log2 fold change [4],log2 fold change [5],log2 fold change [6],log2 fold change [7],log2 fold change [8],log2 fold change [9],log2 fold change [10]
RAB6B (UniProt Q9NRW1),inactive: -0.055,inactive: -0.083,inactive: -0.031,inactive: 0.016,inactive: 0.022,inactive: 0,inactive: 0.039,inactive: -0.051,inactive: 0.035,inactive: -0.008
RAB3C (UniProt Q96E17),inactive: -0.093,inactive: -0.009,inactive: 0.033,inactive: -0.013,inactive: 0.004,inactive: -0.006,inactive: 0.016,inactive: 0.026,inactive: 0.028,inactive: 0.039
RANBP3 (UniProt Q9H6Z4),inactive: -0.052,inactive: 0.046,inactive: 0.006,inactive: -0.012,inactive: 0.002,inactive: 0.008,inactive: -0.007,inactive: -0.013,inactive: -0.024,inactive: 0.019
RBM27 (UniProt Q9P2N5),inactive: 0.007,inactive: 0.078,inactive: 0.019,active: -0.91,inactive: -0.07,inactive: -0.07,inactive: 0.053,inactive: 0.041,inactive: -0.005,inactive: 0.023
RAB1B (UniProt Q9H0U4),inactive: 0.011,inactive: -0.058,inactive: 0.003,inactive: 0.013,inactive: 0.025,inactive: -0.002,inactive: -0.017,inactive: 0.01,inactive: 0.053,inactive: -0.01
RAD18 (UniProt Q9NS91),inactive: 0.018,inactive: 0.027,inactive: -0.058,inactive: -0.053,inactive: -0.094,inactive: -0.182,inactive: -0.004,inactive: 0.119,inactive: -0.035,inactive: -0.046
RAP1B (UniProt P61224),inactive: 0.014,inactive: -0.024,inactive: 0.062,inactive: 0.008,inactive: 0.038,inactive: 0.001,inactive: -0.027,inactive: 0.006,inactive: 0.02,inactive: -0.016
"RAB12, A0A3B3ITT1",inactive: -0.077,inactive: -0.102,inactive: -0.023,inactive: -0.006,inactive: 0.013,inactive: 0.029,inactive: 0.01,inactive: -0.02,inactive: 0.044,inactive: 0.027
RBM10 isoform 5 (UniProt P98175),inactive: 0.212,inactive: -0.204,inactive: -0.019,inactive: 0.012,inactive: 0.032,inactive: -0.04,inactive: -0.229,inactive: -0.065,inactive: 0.056,inactive: -0.015
RAB14 (UniProt P61106),inactive: -0.026,inactive: -0.042,inactive: 0.003,inactive: 0.024,inactive: 0.019,inactive: -0.005,inactive: 0.025,inactive: -0.009,inactive: -0.049,inactive: 0.022
RAB33B (UniProt Q9H082),inactive: -0.01,inactive: 0.012,inactive: 0.01,inactive: 0.018,inactive: -0.058,inactive: 0.022,inactive: 0,inactive: 0.151,inactive: 0.024,inactive: -0.01
RAB5IF isoform 5 (UniProt Q9BUV8),inactive: 0.034,inactive: -0.01,inactive: -0.042,inactive: -0.011,inactive: 0.062,inactive: -0.051,inactive: -0.054,inactive: 0,inactive: -0.013,inactive: 0.079
RAD21 (UniProt O60216),inactive: -0.026,inactive: -0.034,inactive: 0.033,inactive: -0.066,inactive: -0.069,inactive: -0.033,inactive: 0.048,inactive: -0.038,inactive: 0.01,inactive: 0.05
RAB5B (UniProt P61020),inactive: -0.003,inactive: 0.041,inactive: -0.011,inactive: 0.017,inactive: 0.029,inactive: 0.004,inactive: -0.014,inactive: -0.049,inactive: -0.013,inactive: 0.026
RAC2 (UniProt P15153),inactive: 0.014,inactive: -0.033,inactive: 0.049,inactive: 0.025,inactive: 0.061,inactive: -0.001,inactive: -0.008,inactive: 0.058,inactive: 0.017,inactive: 0.018
RAB3A (UniProt P20336),inactive: -0.091,inactive: -0.072,inactive: 0.079,inactive: 0.045,inactive: 0.039,inactive: 0.017,inactive: 0.009,inactive: -0.028,inactive: -0.02,inactive: 0.012
RANBP1 (UniProt P43487),inactive: 0.049,inactive: -0.008,inactive: -0.005,inactive: -0.058,inactive: -0.008,inactive: 0.011,inactive: 0.033,inactive: 0.013,inactive: -0.011,inactive: 0.045
RAB11B (UniProt Q15907),inactive: -0.09,inactive: -0.054,inactive: 0.012,inactive: -0.009,inactive: 0.09,inactive: -0.036,inactive: -0.028,inactive: 0.033,inactive: 0.102,inactive: 0.033
RBFOX2 isoform 8 (UniProt O43251),inactive: -0.028,inactive: 0.143,inactive: -0.017,inactive: -0.127,inactive: -0.096,inactive: 0.243,inactive: -0.086,inactive: 0.124,inactive: -0.122,inactive: 0.05
RABL3 (UniProt Q5HYI8),inactive: -0.078,inactive: 0.003,inactive: -0.02,inactive: -0.007,inactive: -0.009,inactive: 0.004,inactive: 0.034,inactive: -0.007,inactive: -0.016,inactive: 0.016
RBBP7 isoform 2 (UniProt Q16576),inactive: -0.018,inactive: -0.007,inactive: 0.004,inactive: 0.003,inactive: 0.013,inactive: 0.01,inactive: 0.004,inactive: 0.032,inactive: -0.005,inactive: 0.009
RAB24 (UniProt Q969Q5),inactive: -0.047,inactive: -0.101,inactive: 0.008,inactive: 0.026,inactive: 0.037,inactive: -0.015,inactive: 0.009,inactive: -0.008,inactive: 0.001,inactive: 0.003
RB1 (UniProt P06400),inactive: 0.006,inactive: 0.01,inactive: 0.015,active: -0.378,inactive: 0.011,active: -0.716,inactive: 0.082,inactive: 0.011,inactive: 0.004,inactive: 0.046
RANBP2 (UniProt P49792),inactive: -0.092,inactive: 0.197,inactive: -0.05,inactive: 0.087,inactive: -0.011,inactive: -0.043,inactive: -0.047,inactive: -0.051,inactive: -0.036,inactive: -0.073
RAP2C (UniProt Q9Y3L5),inactive: 0.115,inactive: 0.157,inactive: 0.181,inactive: 0.069,inactive: 0.018,inactive: 0.019,inactive: 0.047,inactive: -0.032,inactive: 0.086,inactive: 0.041
RBBP4 (UniProt Q09028),inactive: 0.043,inactive: -0.083,inactive: 0.019,inactive: 0.012,inactive: 0,inactive: 0.002,inactive: -0.079,inactive: 0.004,inactive: 0.044,inactive: -0.003
RAB20 (UniProt Q9NX57),inactive: -0.021,inactive: -0.044,inactive: 0.04,inactive: 0.025,inactive: 0.015,inactive: 0.05,inactive: 0.004,inactive: 0.073,inactive: 0.029,inactive: -0.036

# Limited to log2 fold change [5], for some of the entries so far:
Target | log2 fold change [5]
RAD21 (UniProt O60216) | inactive: -0.069
RAB5B (UniProt P61020) | inactive: 0.029

# Look-ups from the entries so far.
# In log2 fold change [1], RBM10 isoform 5 (UniProt P98175) has the entry inactive: 0.212
# In log2 fold change [1], RB1 (UniProt P06400) has the entry inactive: 0.006

# From the supplement of paper PMC10849652
